## Results of single-concentration screens

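Phenotypic screen: M. tuberculosis growth, cholesterol and DPPC medium, 4 days; the read-out is not stated. Concentration: 500 µM. The record gives no direction; compounds that gave an IC50 in retests scored well above the rest, so higher reads as more growth inhibition. Size under these conditions: about 18,000 compounds, about 900 of them at 50% or above in at least one test.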

Results are given as percent effect. The controls that fix the scale are not given in the record; negative values are as filed. The compounds are a random part of those screened.

Compound: CN(CCSc1nnc[nH]1)c1ccccc1
percent effect: 39.63

Compound: Oc1ccccc1N1CCN(Cc2ccccn2)CC1
percent effect: 13.55

Compound: O=C(Nc1cnc(O)nc1O)c1ccccc1Br
percent effect: 23.69

Compound: COc1ccc(CNC(=O)C2CCCN2)cc1 (centres undefined)
percent effect: 8.604

Compound: O=C1CCNc2cnccc2N1
percent effect: 2.773

Compound: COC(=O)c1cccc(CNCCC(=O)N(C)C)c1
percent effect: 6.394

Compound: CCN1CCN(C(C)CNC(=O)c2scnc2C)CC1 (centres undefined)
percent effect: 12.52

Compound: CC(NCC(=O)N1CCNC1=O)c1ccc(Cl)s1 (centres undefined)
percent effect: 7.052

Compound: CCn1nnnc1SC(C)C(=O)Nc1ccc(F)cc1 (centres undefined)
percent effect: -7.931

Compound: O=C(CCS(=O)(=O)c1ccccc1)NC1CCCC1
percent effect: 2.613

Compound: CC(C)CNC(=O)c1cc2ncc(Br)cn2n1
percent effect: -3.141

Compound: COCc1noc(CC(C)NC(=O)C2CCCC2)n1 (centres undefined)
percent effect: -2.25

Compound: CC(C)CC1(CNC(=O)NC2CCC(=O)NC2)CCC1 (centres undefined)
percent effect: -14.13

Compound: CCN(CC)S(=O)(=O)c1c(N)noc1C
percent effect: -9.815

Compound: CC(NC(=O)Nc1ccc2c(c1)C(=O)NC2=O)C1CC1 (centres undefined)
percent effect: -4.151

Compound: O=C(NCC1CCNCC1)c1ccncc1
percent effect: -6.537

Compound: N#CC1(NC(=O)C(O)Cc2ccccc2Cl)CCC1 (centres undefined)
percent effect: 3.712

Compound: Cc1cc(Br)cc(C(=O)N2CCOCC2C(N)=O)c1 (centres undefined)
percent effect: -6.573

Compound: CC[C@@]1(O)CCN(C(=O)CCc2cc(Cl)no2)C[C@H]1O
percent effect: 35.85

Compound: COc1ccccc1CC(=O)N1CCCNCC1
percent effect: 7.717

Compound: COCCC1CN(C(=O)c2ccc(C)c(F)c2)CCO1 (centres undefined)
percent effect: 69.73

Compound: Cc1cnc(NC(=O)CCn2cncn2)s1
percent effect: -4.488

Compound: C[n+]1ccn(C(=O)N2CCCCCC2)c1.[I-]
percent effect: 20.23

Compound: COc1ccc(NC(=O)NC2CCNC2=O)c(C)c1 (centres undefined)
percent effect: -0.5742

Compound: CC(=O)Nc1nc(C(=O)NC(C)Cc2ccco2)cs1 (centres undefined)
percent effect: 29.28

Compound: COc1ccnc(N2CCC(c3nncn3C)CC2)n1
percent effect: -0.2358

Compound: CC1(C)CCC(CO)O1 (centres undefined)
percent effect: -4.315

Compound: O=C(Cn1ccc(=O)[nH]c1=O)NCc1cccnc1
percent effect: -18.12

Compound: Nc1csc(-c2ccncc2)n1
percent effect: -12.48

Compound: O=C(NCC1CCOC1)c1cc2c([nH]c1=O)CCC2 (centres undefined)
percent effect: 46.63

Compound: CC[C@H](O)CN1CCOC2(CCOCC2)CC1
percent effect: -7.093

Compound: CC(NC(=O)c1ccncc1F)C(C)(C)CN(C)C (centres undefined)
percent effect: -13.19

Compound: OCC1(O)CCCN(Cc2ccccc2)C1 (centres undefined)
percent effect: 13.43

Compound: Cn1c(CN)nc2ccc(F)cc21
percent effect: 11.77

Compound: Cc1cc(N2CCCC2)nc(C)n1
percent effect: 8.616

Compound: O=C1CCCCNC1
percent effect: -1.086

Compound: COc1cccc(CNC(=O)Cn2cnc(C#N)n2)c1
percent effect: 5.218

Compound: COc1cccc(CC(=O)N2CCNC(=O)C2)c1
percent effect: 16.38

Compound: O=C(NCC(CO)Cc1cccnc1)C1CCCC1 (centres undefined)
percent effect: 10.81

Compound: COc1ccc2[nH]c(CNC(=O)CNC(N)=O)cc2c1
percent effect: 7.944

Compound: CC(N)C(=O)N1CCN(C)CC1 (centres undefined)
percent effect: -1.587

Compound: CCNC(=O)C1CCCN(c2ccncc2Cl)C1 (centres undefined)
percent effect: 86.2

Compound: CN(C)[C@@H]1CN(C(=O)c2ccccc2)C[C@H]1CO
percent effect: -23.93

Compound: CC(=O)N(C)C1CCN(Cc2cccc(F)c2)CC1
percent effect: -11.5

Compound: Cc1nnc(CN(C)C(CCO)c2ccccc2)o1 (centres undefined)
percent effect: 0.8309

Compound: OCC(c1ccc(Br)cc1)N1CCNCC1 (centres undefined)
percent effect: 13.89

Once more, the final 6:

- CC(N)C(=O)N1CCN(C)CC1 (centres undefined) | -1.587%
- CCNC(=O)C1CCCN(c2ccncc2Cl)C1 (centres undefined) | 86.2%
- CN(C)[C@@H]1CN(C(=O)c2ccccc2)C[C@H]1CO | -23.93%
- CC(=O)N(C)C1CCN(Cc2cccc(F)c2)CC1 | -11.5%
- Cc1nnc(CN(C)C(CCO)c2ccccc2)o1 (centres undefined) | 0.8309%
- OCC(c1ccc(Br)cc1)N1CCNCC1 (centres undefined) | 13.89%

Measurements from “University of Dundee, Small-Polar-MMV Screening Library” (2021), ChEMBL document CHEMBL3988442.